Measured values: PubChem BioAssay AID1487 (National Center for Advancing Translational Sciences (NCATS), 2009)
Screen size: about 200,000 compounds; about 25 (0.01%) were called active. The shares of active, inactive and inconclusive entries below differ from those in the screen. Calls follow the shape of the dose curve; as a rule, active = well fitted inhibition curve with a large enough effect in the signal ratio, with a control signal flat (not every such curve was filed as active); inconclusive = small, poorly fitted or top-dose-only effect, or effect the other way, or a change in a side signal; inactive = flat fitted curve, though single readings scatter; the % refers to the signal ratio. Where the call is inconclusive, the potency comes from a doubtful curve fit.
% is scaled to controls: 0 for no effect and ±100 for the full control effect; potency is read from the fitted curve at half-maximal effect.

Assay: qHTS Assay for Modulators of Lamin A Splicing
Settings: HeLa LMNA splicing GFP/RFP minigene ratio, 48 h; ratio change, negative = inhibition: at 46.1 µM (top of the series) unless noted
Procedure, shortened: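 Read-out is the ratio of GFP to DsRed2 object intensity, acquired by 488 nm laser-scanning cytometry on HeLa lamin A-EGFP minigene reporter cells. Compound incubation 48 hrs at 37 °C in Opti-MEM with 2% FBS; DMSO 0.5% final.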
For `CCOc1ccc(N2C(=O)CC(N3CCC(NC(=O)Nc4ccccc4)CC3)C2=O)cc1` (configuration not stated), the ratio change, negative = inhibition was inconclusive: 2.43%. In the case of `CCSc1nc2ccccc2n1C(=O)/C=C\c1ccc(OC)c(OC)c1`, the Potency is reported as inconclusive: 3.16 µM [cytotoxic, full curve]. With `CC(=O)c1c(C)[nH]c(C(=O)NCc2cccs2)c1C` the ratio change, negative = inhibition was inconclusive: 31.9%. With `COc1ccc(C2=NO[C@@H]3C(=O)N(c4ccc(C)cc4C)C(=O)[C@H]23)cc1OC` the ratio change, negative = inhibition was “inactive”. With `COc1cc(SC)ccc1C(=O)NCCOc1ccc(Cl)cc1` the Potency was inconclusive: 35.5 µM [fluorescent, single point]. In the case of `O=S(=O)(NCc1nc2cccnc2n1Cc1ccc(F)cc1)c1ccc2c(c1)CCCC2`, the ratio change, negative = inhibition is reported as “inactive”. In the case of `COC(=O)c1c(-c2cc(OC)c(OC)c(OC)c2)c2ccnc(OCc3ncccn3)c2c(=O)n1Cc1ccnc(C)c1`, the ratio change, negative = inhibition is reported as inconclusive: -10.4%. For `COc1cccc(NC(=O)N[C@@H](Cc2ccccc2)C(=O)O)c1`, the ratio change, negative = inhibition was “inactive”. With `O=C(c1ccc(S(=O)(=O)N2CCCCC2)cc1)N1CCN(CCN2C(=O)c3cccc4cccc(c34)C2=O)CC1` the ratio change, negative = inhibition was inconclusive: -8.51% [at 46 µM]. In the case of `CS(=O)(=O)N(CC(=O)N1CCN(Cc2ccc3c(c2)OCO3)CC1)C1CCCCC1`, the ratio change, negative = inhibition is reported as inconclusive: 27.2% [at 46 µM]. In the case of `COCCn1c(SC(C)C(=O)Nc2ncc(Cl)cc2Cl)nc2ccccc21` (configuration not stated), the Potency is reported as inconclusive: 7.08 µM [falling, partial curve]. In the case of `CCCC(=O)Nc1cc(C(=O)O)ccc1S(=O)(=O)c1ccc(C)cc1`, the ratio change, negative = inhibition is reported as “inactive”. In the case of `Cc1ccc(Nc2nc(N)nc(CSc3ncccn3)n2)cc1`, the ratio change, negative = inhibition is reported as “inactive”. In the case of `CC1CCN(S(=O)(=O)c2cccc(C(=O)NCc3cccs3)c2)CC1`, the Potency is reported as inconclusive: 35.5 µM [falling, single point]. In the case of `CC1(c2ccccc2)NC(=O)N(CC(=O)Nc2cccc(C#N)c2)C1=O` (configuration not stated), the ratio change, negative = inhibition is reported as inconclusive: 8.53%. In the case of `O=C1C2Sc3[nH]c(=O)sc3C(c3ccccc3)C2C(=O)N1c1ccc(Cl)cc1` (configuration not stated), the ratio change, negative = inhibition is reported as inactive: 4.39% [at 0.0737 µM]. For `COc1cc(NC(=O)c2cc(-c3cccnc3)nc3ccc(Br)cc23)cc(OC)c1`, the ratio change, negative = inhibition was inconclusive: 25.2% [at 46 µM]. For `Cc1ccc(N=C/C(C(=O)C(F)(F)F)=C(\O)c2ccco2)cc1Cl`, the ratio change, negative = inhibition was “inactive”. With `O=C(CSc1nnc(-c2ccc(F)cc2)c2ccccc12)NCC1CCCO1` (configuration not stated) the Potency was inconclusive: 12.6 µM [falling, partial curve, poor fit]. With `CN(C)c1ccc(N=C/C=C2\N(C)c3ccccc3C2(C)C)cc1` the ratio change, negative = inhibition was “inactive”. With `COc1cccc(OC)c1C(=O)NC(=S)Nc1cc(-c2nc3ccccc3[nH]2)ccc1Cl` the ratio change, negative = inhibition was “inactive”. In the case of `CO[C@H]1[C@H](O[C@H]2O[C@@H](C)[C@@H](O[C@@H]3C[C@](C)(O)[C@H](OC(=O)CC(C)C)[C@H](C)O3)[C@@H](N(C)C)[C@@H]2O)[C@@H](CC=O)C[C@@H](C)[C@@H](O)/C=C\C=C/C[C@@H](C)OC(=O)C[C@H]1OC(C)=O`, the ratio change, negative = inhibition is reported as inconclusive: -11.5%. With `CN1CCc2cc(Cl)c(O)cc2C(c2ccccc2)C1` (configuration not stated) the Potency was inconclusive: 15.8 µM [inhibitor, partial curve, poor fit]. With `O=C(NCc1ccc(F)cc1)Nc1cccc(Cl)c1` the ratio change, negative = inhibition was inconclusive: -19.7% [at 46 µM]. With `CCSc1nc2sc3c(c2c(=O)n1CC)CC(C)(C)OC3` the ratio change, negative = inhibition was inconclusive: -0.0063%. With `COc1cc(OC)cc(C(=O)NNc2nc3cc4c(cc3s2)OCO4)c1` the ratio change, negative = inhibition was “inactive”. In the case of `COC(=O)c1ccc(COc2ccccc2/C=C(\C#N)C(=O)Nc2ccc(C)cc2)cc1`, the ratio change, negative = inhibition is reported as “inactive”. With `C[C@]12CC[C@@H]3c4ccc(O)cc4CC[C@H]3[C@@H]1CCC2=O` the ratio change, negative = inhibition was inconclusive: -3.82%. In the case of `CC(=O)Nc1nonc1-c1nnc(SCC(=O)Nc2cc(C)cc(C)c2)n1C`, the ratio change, negative = inhibition is reported as “inactive”. With `COc1ccc(C/C(C)=N/NC(=O)c2ccc(C)cc2C)cc1` the ratio change, negative = inhibition was “inactive”. With `Cc1cc(S(=O)(=O)Nc2ccc3c(c2)COC3=O)ccc1F` the ratio change, negative = inhibition was inconclusive: 17.3% [at 46 µM]. In the case of `CCCCn1c(=O)cc(O)c2ccccc21`, the ratio change, negative = inhibition is reported as “inactive”. In the case of `COc1cccc(NC(=S)N(CCc2ccc(OC)c(OC)c2)Cc2ccccn2)c1`, the ratio change, negative = inhibition is reported as “inactive”. In the case of `CN(C)c1ccc(-c2nc(NCc3cccnc3)c3ccccc3n2)cc1`, the Potency is reported as inconclusive: 35.5 µM [cytotoxic, single point]. With `COc1cccc(/C=N/n2c(=O)[nH]c3ccccc32)c1OC` the ratio change, negative = inhibition was inconclusive: -10.7%. In the case of `CCOC(=O)c1cnn(-c2ccc(C(=O)Nc3ccc(OC(F)(F)F)cc3)cc2)c1N`, the ratio change, negative = inhibition is reported as “inactive”. For `CC(NC(=O)c1ccccc1NC(=O)c1ccccc1)C(=O)N1CCOCC1` (configuration not stated), the ratio change, negative = inhibition was “inactive”. For `Fc1ccc(-c2nnn(Cc3nc4ccccc4s3)n2)cc1`, the ratio change, negative = inhibition was “inactive”. In the case of `Cc1cc(C)cc(N(CCC(=O)O)S(=O)(=O)c2ccc3ccccc3c2)c1`, the ratio change, negative = inhibition is reported as inconclusive: -2.73%. For `COc1cc(-c2nc(S(=O)(=O)c3ccc(Br)cc3)c(N3CCOCC3)o2)cc(OC)c1OC`, the ratio change, negative = inhibition was “inactive”. In the case of `FC(F)(F)c1ccc(Oc2ccccc2Cl)nc1`, the ratio change, negative = inhibition is reported as inconclusive: -9.84% [at 46 µM]. In the case of `C[n+]1cn(/N=C/c2ccccc2)c2ccccc21`, the ratio change, negative = inhibition is reported as inconclusive: 12.1%. With `CCCS(=O)(=O)N1CCC(C(=O)NC2CCC(C)CC2)CC1` (configuration not stated) the ratio change, negative = inhibition was “inactive”. For `CN(C)c1ccc(CN(C(=O)c2ccco2)C2CCS(=O)(=O)C2)cc1` (configuration not stated), the ratio change, negative = inhibition was “inactive”. In the case of `Cc1ccc(CSC2=Nc3sccc3C3=NC(=O)CN23)cc1`, the ratio change, negative = inhibition is reported as “inactive”. For `CC(C)(C)n1cnc2cc(NCc3cccs3)ccc21`, the ratio change, negative = inhibition was inconclusive: -11.5% [at 46 µM]. In the case of `CS(=O)(=O)N(Cc1ccco1)CC(O)Cn1cc(C=O)c2ccccc21` (configuration not stated), the ratio change, negative = inhibition is reported as “inactive”. For `O=C(Nc1nc(-c2ccccc2)cs1)c1ccc2c(=O)n3c(nc2c1)CCCCC3`, the Potency was inconclusive: 17.8 µM [inhibitor, partial curve]. For `COc1ccc(S(=O)(=O)NCC2CCCN(C(=O)CC3CCCC3)C2)cc1` (configuration not stated), the ratio change, negative = inhibition was “inactive”. For `Cc1ccc(-n2ncc3c(SCc4ccccn4)ncnc32)c(C)c1`, the Potency was inconclusive: 0.794 µM [inhibitor, full curve]. In the case of `COc1ccc(C(C#N)N2CCOCC2)cc1` (configuration not stated), the ratio change, negative = inhibition is reported as “inactive”. With `Cc1ccc(-n2c(=S)[nH]c3sc4c(c3c2=O)CCc2ccccc2-4)cc1` the ratio change, negative = inhibition was inconclusive: -4.11%.
